# Data from PMC8384837.
# Changes are numbered by the printed parent chain. This is one part of the list. For some assays here: At the low end of the ranking the order means little.
# Key:
# Settings in all cases: yeast three-hybrid, YBZ-1, SC-Leu-His + 0.5 mM 3-AT, 4 days
# [1] = molecular target: T1, PUM1 PUF domain R4-MNV N971M + H972N + Q975V (UniProt Q14671)
# T1 sequence: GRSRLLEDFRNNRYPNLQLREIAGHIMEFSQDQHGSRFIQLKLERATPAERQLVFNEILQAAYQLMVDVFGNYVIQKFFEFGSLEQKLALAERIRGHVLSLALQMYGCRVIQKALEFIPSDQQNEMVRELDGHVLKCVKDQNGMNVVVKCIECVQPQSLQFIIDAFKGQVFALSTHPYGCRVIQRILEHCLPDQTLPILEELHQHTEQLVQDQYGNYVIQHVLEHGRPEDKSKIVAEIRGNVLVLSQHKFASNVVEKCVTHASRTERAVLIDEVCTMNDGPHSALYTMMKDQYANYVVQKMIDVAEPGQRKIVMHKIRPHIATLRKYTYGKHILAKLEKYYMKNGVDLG
# [2] = molecular target: T2, PUM1 PUF domain R4-NNG H972N + Q975G (Homo sapiens) (UniProt Q14671)
# T2 sequence: T1 sequence with M144N, V148G
# [3] = molecular target: T3, PUM1 PUF domain R4-PHK N971P + Q975K (Homo sapiens) (UniProt Q14671)
# T3 sequence: T1 sequence with M144P, N145H, V148K
# [4] = molecular target: T4, PUM1 PUF domain R4-PYE N971P + H972Y + Q975E (Homo sapiens) (UniProt Q14671)
# T4 sequence: T1 sequence with M144P, N145Y, V148E
# [5] = molecular target: T5, PUM1 PUF domain R4-PYL N971P + H972Y + Q975L (Homo sapiens) (UniProt Q14671)
# T5 sequence: T1 sequence with M144P, N145Y, V148L
# [6] = molecular target: T6, PUM1 PUF domain R4-PYR N971P + H972Y + Q975R (Homo sapiens) (UniProt Q14671)
# T6 sequence: T1 sequence with M144P, N145Y, V148R
# [7] = molecular target: T7, PUM1 PUF domain R4-QGA N971Q + H972G + Q975A (Homo sapiens) (UniProt Q14671)
# T7 sequence: T1 sequence with M144Q, N145G, V148A
# [8] = molecular target: T8, PUM1 PUF domain R4-QGG N971Q + H972G + Q975G (Homo sapiens) (UniProt Q14671)
# T8 sequence: T1 sequence with M144Q, N145G, V148G
# [9] = molecular target: T9, PUM1 PUF domain R4-RMR N971R + H972M + Q975R (UniProt Q14671)
# T9 sequence: T1 sequence with M144R, N145M, V148R
# [10] = molecular target: T10, PUM1 PUF domain R4-SHP N971S + Q975P (UniProt Q14671)
# T10 sequence: T1 sequence with M144S, N145H, V148P
# [11] = molecular target: T11, PUM1 PUF domain R4-SMR N971S + H972M + Q975R (UniProt Q14671)
# T11 sequence: T1 sequence with M144S, N145M, V148R
# [12] = molecular target: T12, PUM1 PUF domain R4-SNF N971S + H972N + Q975F (Homo sapiens) (UniProt Q14671)
# T12 sequence: T1 sequence with M144S, V148F
# [13] = molecular target: T13, PUM1 PUF domain R4-SNR N971S + H972N + Q975R (Homo sapiens) (UniProt Q14671)
# T13 sequence: T1 sequence with M144S, V148R
# [14] = molecular target: T14, PUM1 PUF domain R4-SPR N971S + H972P + Q975R (Homo sapiens) (UniProt Q14671)
# T14 sequence: T1 sequence with M144S, N145P, V148R
# [15] = molecular target: T15, PUM1 PUF domain R4-SQR N971S + H972Q + Q975R (Homo sapiens) (UniProt Q14671)
# T15 sequence: T1 sequence with M144S, N145Q, V148R
# [16] = molecular target: T16, PUM1 PUF domain R4-SRR N971S + H972R + Q975R (UniProt Q14671)
# T16 sequence: T1 sequence with M144S, N145R, V148R
# [17] = molecular target: T17, PUM1 PUF domain R4-TNG N971T + H972N + Q975G (Homo sapiens) (UniProt Q14671)
# T17 sequence: T1 sequence with M144T, V148G
# [18] = molecular target: T18, PUM1 PUF domain R4-VFP N971V + H972F + Q975P (UniProt Q14671)
# T18 sequence: T1 sequence with M144V, N145F, V148P
# [19] = molecular target: T19, PUM1 PUF domain R4-VNA N971V + H972N + Q975A (Homo sapiens) (UniProt Q14671)
# T19 sequence: T1 sequence with M144V, V148A
# [20] = molecular target: T20, PUM1 PUF domain R4-VNS N971V + H972N + Q975S (Homo sapiens) (UniProt Q14671)
# T20 sequence: T1 sequence with M144V, V148S
sequence,measurement,setting,value
GGCUAGAACUAGUGGAUCCCCCGGCGCCCGGCGGCUCGAGCCCGGGUAAGUGUAAAUAGUCUGCAUGCCGCCGGGCGCCAUGCCUGCAGGUCGACUCUAGAAAACAUG,binding signal (log2 enrichment (interaction score)),[1],< -5.46
same,binding signal (log2 enrichment (interaction score)),[2],-1.79
same,binding signal (log2 enrichment (interaction score)),[3],-2.5
same,binding signal (log2 enrichment (interaction score)),[4],-3.13
same,binding signal (log2 enrichment (interaction score)),[5],-2.19
same,binding signal (log2 enrichment (interaction score)),[6],-1.23
same,binding signal (log2 enrichment (interaction score)),[7],-0.91
same,binding signal (log2 enrichment (interaction score)),[8],-0.04
same,binding signal (log2 enrichment (interaction score)),[9],-5.95
same,binding signal (log2 enrichment (interaction score)),[10],< -5.22
same,binding signal (log2 enrichment (interaction score)),[11],-5.91
same,binding signal (log2 enrichment (interaction score)),[12],-1.14
same,binding signal (log2 enrichment (interaction score)),[13],-2
same,binding signal (log2 enrichment (interaction score)),[14],0.15
same,binding signal (log2 enrichment (interaction score)),[15],-3.87
same,binding signal (log2 enrichment (interaction score)),[16],< -7.96
same,binding signal (log2 enrichment (interaction score)),[17],-0.08
same,binding signal (log2 enrichment (interaction score)),[18],< -6.43
same,binding signal (log2 enrichment (interaction score)),[19],-1.66
same,binding signal (log2 enrichment (interaction score)),[20],-1.28

# Part of the list above, as tab-separated lines.
sequence	measurement	setting	value
GGCUAGAACUAGUGGAUCCCCCGGCGCCCGGCGGCUCGAGCCCGGGUAAGUGUAAAUAGUCUGCAUGCCGCCGGGCGCCAUGCCUGCAGGUCGACUCUAGAAAACAUG	binding signal (log2 enrichment (interaction score))	[5]	-2.19
same	binding signal (log2 enrichment (interaction score))	[6]	-1.23
